Source: PubChem BioAssay AID2417 (National Center for Advancing Translational Sciences (NCATS), 2010)
The whole screen tested about 140,000 compounds, of which about 4,300 (3.1%) were called active. Inconclusive results, whose numbers are uncertain, are shown with a selection of clear calls.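 How the source made its calls: active means readout at or below -70, meaning at least 70% loss of cells showing the perinucleolar compartment, a nuclear body marking cancer cells; inconclusive means readout between -30 and a set limit; inactive means the rest.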

Test: High Content Assay for Compounds that inhibit the Assembly of the Perinucleolar Compartment;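 further: plate controls were DMSO wells for no effect and camptothecin positive control wells for full effect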
Details: PC3M PTB-GFP, PNC prevalence imaging, 16 h; at 10 µM; active compounds read low
Procedure, shortened: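 Read-out is percentage of cells bearing a perinucleolar compartment, from automated 20x imaging of fixed, Hoechst-stained PC3M PTB-GFP cells. Cells were seeded 4 h, then exposed 16 h to compound (23 nl of library stock) in duplicate plates.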

Row | Compound | activity change (PNC), negative = inhibition
1 | COc1ccc2oc(=N)c(C(=O)Nc3ccccc3)cc2c1 | active: -83.4%
2 | O=C(/C=C/c1ccc(OCc2ccccc2)c(OCc2ccccc2)c1)c1cccnc1 | inactive: -16.1%
3 | COc1cc(OC)c(-c2c3cc(O)c(=O)cc-3oc3cc(O)c(O)cc23)cc1OC | inactive: -27%
4 | Nn1c(SCC(=O)NCCC2=CCCCC2)nnc1C(F)(F)F | inconclusive: -32.9%
5 | CN(C)CCCOc1cccc(Cl)c1 | inconclusive: -52.4%
6 | CSCCC(NC(=O)c1ccccc1Br)C(=O)Nc1ccc(C)cc1 (centres undefined) | inconclusive: -75.1%
7 | Cc1ccccc1NC(=S)N1CCN(Cc2ccccc2)CC1 | inconclusive: -32.8%
8 | O=C1C(=Cc2ccc(Br)o2)C(=O)c2ccccc21 | inconclusive: -64.3%
9 | CCN1C(=O)/C(=C/c2cccs2)N(C)C1=S | inconclusive: -39%
10 | CC1C(=O)NN=C1C(=O)N/N=C\c1ccc(O)cc1O (centres undefined) | inactive: 29.9%
11 | O=C(O)C1CCCCC1C(=O)NCCc1ccncc1 (centres undefined) | inconclusive: -43.8%
12 | COC(=O)c1ccc(Oc2cc(C)nc(-n3nc(C)cc3C)n2)cc1 | inconclusive: -53.3%
13 | N/C(Cc1ccc(Cl)cc1Cl)=N\OC(=O)c1cccs1 | inconclusive: -39.3%
14 | CCc1ccccc1NC(=O)COc1cccc2ccc(C)nc12 | inconclusive: -34.8%
15 | Cc1cccn2c(=O)c(/C=C(\C#N)S(=O)(=O)c3ccccc3)c(Oc3ccc(Cl)cc3)nc12 | inactive: -12%
16 | COc1ccc(NC(=O)N2CCc3ccccc32)cc1 | inconclusive: -38.4%
17 | O=C1/C(=C/c2ccccc2)CSc2sccc21 | inconclusive: -30%
18 | Cc1ccc2[nH]c(=O)c(CN(Cc3nnnn3C3CCCC3)C3CCCCC3)cc2c1 | active: -100%
19 | CC(=O)C1C(c2cn(-c3ccccc3)nc2-c2cccs2)NC(=O)NC1(O)C(F)(F)F (centres undefined) | inactive: 1.05%
20 | Cn1c(C(=O)O)c(CC(=O)Nc2ccc(F)cc2F)c2ccccc21 | inactive: -16.7%

Taken from above:
CSCCC(NC(=O)c1ccccc1Br)C(=O)Nc1ccc(C)cc1 (centres undefined) – activity change (PNC), negative = inhibition: inconclusive: -75.1%
CC1C(=O)NN=C1C(=O)N/N=C\c1ccc(O)cc1O (centres undefined) – activity change (PNC), negative = inhibition: inactive: 29.9%

Additional structures

Row | Compound | activity change (PNC), negative = inhibition
21 | Cc1cccc(-n2ccnc2SCC(=O)Nc2nccs2)c1C | inactive: -26.7%
22 | CCCCn1nc(NC(=O)c2cccs2)c2cc3ccccc3nc21 | inconclusive: -41.8%
23 | COc1ccc([C@@H]2[C@@H](C(=O)C(C)(C)C)N3N=Cc4ccccc4[C@@H]3C23C(=O)OC(C)(C)OC3=O)cc1OC | inconclusive: -60.6%
24 | COC(=O)c1ccc(OCCOc2ccccc2)cc1 | inactive: 10.5%
25 | CC(C)Cn1c(N)c(C(=O)COC(=O)C2CCCCC2)c(=O)n(C)c1=O | inconclusive: -74.7%
26 | Cc1cc(Cn2ccnc2)c(C)cc1Cn1ccnc1 | inconclusive: -71.8%
27 | CN(C(=O)Cc1noc2ccccc12)c1ccccc1 | inactive: 26.3%
28 | CCCN(CCC)S(=O)(=O)c1ccc2c(c1)CCCN2C(C)=O | inactive: -1.4%
29 | Cn1c(CCN2CCCCC2)nc2cc(NS(=O)(=O)c3ccc(Cl)cc3)ccc21 | active: -92.6%
30 | Cc1cc(NC(=O)c2ccc3nc(C)sc3c2)no1 | inactive: 30%
31 | CCOc1cc(CNCC2CCCO2)cc(Br)c1OCC(N)=O (centres undefined) | inconclusive: -75.3%
32 | Cc1cc2nc(CCN(Cc3cccnc3)C(=S)Nc3ccc(F)cc3)[nH]c2cc1C | inactive: 85%
33 | O=C(NNC(=O)C1CCCO1)c1ccccc1Cl (centres undefined) | inconclusive: -55.9%
34 | CCC1c2ccc(C)n2CCN1C(=O)Nc1cc(Cl)ccc1OC (centres undefined) | inactive: 20.4%
35 | CC1CCCC(NC(=O)COC(=O)/C=C/c2ccc3c(c2)OCO3)C1C (centres undefined) | inconclusive: -70.1%
36 | CC(=O)Nc1c(C(=O)NCc2ccccc2)nnn1Cc1ccccc1 | inactive: -12.2%
37 | N#Cc1c(NC(=O)CSc2ncn(-c3ccccc3)n2)sc2c1CCCC2 | inconclusive: -65.2%
38 | Cc1ccccc1OCCNc1cc(N2CCCCC2)ccc1[N+](=O)[O-] | inactive: 102%
39 | Cc1cc(/C=N/n2cnnc2)c(C)n1-c1ccc(OCc2ccc(Cl)cc2Cl)cc1 | inactive: 11.6%
40 | CCc1nc2ccccc2n1Cc1cc(=O)n2cc(C)ccc2n1 | inactive: -2.42%

Row | Compound | activity change (PNC), negative = inhibition
41 | Cc1onc(-c2ccccc2)c1C(=O)Oc1cccnc1 | inconclusive: -38.1%
42 | CC(=O)c1cc2c(cc1NC(=O)c1cc(C)nn1-c1ccccc1)OCO2 | inconclusive: -72.9%
43 | COCc1cc(Sc2ccc(Cl)cc2)nc(-c2ccccc2)n1 | inactive: -24.2%
44 | Cc1ccc2oc3c(c(=O)c2c1)C(c1cccc(Cl)c1)N(CCCN1CCOCC1)C3=O (centres undefined) | inconclusive: -31%
45 | COc1ccc(OCC(=O)NNC(=O)C(=O)Nc2ccc(C)cc2)cc1 | inactive: -28.5%
46 | c1ccc(OCc2nnc3sc(C4COc5ccccc5O4)nn23)cc1 (centres undefined) | inactive: 3.42%
47 | CCCC(=O)Nc1ccc(Cl)c(NC(=S)NC(=O)c2cc3ccccc3o2)c1 | inactive: 1.88%
48 | Cc1nn(-c2ccccc2)c(N2CCCC2)c1/C=N/NC(=S)Nc1ccccc1F | active: -86.5%
49 | O=C(Nc1cccs1)Nc1ccccc1Cl | active: -82.3%
50 | COc1ccc(C(=O)NCC(c2cccnc2)N2CCN(c3ccccc3OC)CC2)cc1OC (centres undefined) | inconclusive: -78.9%
51 | O=C(CSc1nc(O)cc(=O)n1-c1ccccc1)Nc1ccc2c3c(cccc13)CC2 | inactive: 16.1%
52 | O=C(c1ccccc1)c1nnc(-c2ccncc2)o1 | inactive: 3.53%
53 | COc1ccccc1OCC(O)Cn1nc(C)cc1C (centres undefined) | inconclusive: -33.4%
54 | COC(=O)c1cc2sc(Cl)cc2n1CC(=O)NCCC(C)C | inconclusive: -66%
55 | Cc1ccc(-c2cc(C(F)(F)F)n3nc(C(=O)Nc4c(C)n(C)n(-c5ccccc5)c4=O)cc3n2)cc1 | inconclusive: -49.4%
56 | Cc1ccc(NC2=NC(=S)N(CC#N)C23CCCCC3)cc1 | inactive: -14.3%
57 | Cc1ccc(CCNC(=O)C2CCN(S(=O)(=O)c3cccc4nsnc34)CC2)cc1 | inactive: 7.46%
58 | Cc1ccc(C)c(-c2nc3cc(N)ccc3o2)c1 | inconclusive: -54.5%
59 | O=[N+]([O-])c1ccc(Cl)c(/C=N/N2CCN(c3ccccc3)CC2)c1 | inactive: 7.21%
